Source: article PMC9409320
Construct, isoform or probe ends are uncertain for at least one entry. At least one result comes from cells or an extract, where the contact may be indirect. At least one verdict rests on a figure or table, not on a statement of the authors.

Test system: Runx2
Test: DAPA (streptavidin pull-down, immunoblot)
Settings: DAPA: HEK293 lysate (500-1000 ug) with 1 uL biotinylated probe overnight, washes in 1x annealing buffer, 1x gel shift buffer and PBS, protein in a lysate after overexpression, protein details: Myc (pCS4-3Myc), label: 5' biotin on both strands

Sequence: GCAAGGCCACGTGGAGGACACGGG (double strand) [OSE2 biotinylated probe]
- binding result (increasing co-expressed HA-CypA, Runx2 binding increases with CypA amount): binds
- binding result (without co-expressed CypA): binds
